Source: the supplement of paper PMC10470496
Where a name gives a salt, the structure may show the parent alone. This is one part of the list. Many values rest on one well or one pass, so single values are uncertain.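 Three clinical Candida auris isolates (clades III, IV and I) from the CDC resistance isolate bank were grown in RPMI-1640 at 35°C. Growth was background-corrected OD600 relative to same-plate vehicle-only wells. Hits required over 50% inhibition in at least two strains and a plate-corrected B-score above 0.1.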

Experiments:
Experiment in all cases: growth relative to vehicle control (OD600 ratio) (fraction); higher = less inhibition
Details in all cases: 24 h
C. auris AR-384 = tested on: C. auris AR-384
C. auris AR-386 = tested on: C. auris AR-386
C. auris AR-387 = tested on: C. auris AR-387

Row | Structure (SMILES) | growth (C. auris AR-384; 1 µM) | growth (C. auris AR-384; 10 µM) | growth (C. auris AR-386; 1 µM) | growth (C. auris AR-386; 10 µM) | growth (C. auris AR-387; 1 µM) | growth (C. auris AR-387; 10 µM)
1 | C[C@H]1COc2c(N3CCN(C)CC3)c(F)cc3c(=O)c(C(=O)O)cn1c23 [Levofloxacin hydrate] | 1.14 | 1.16 | 1.32 | 1.13 | 1.29 | 1.11
2 | C[C@@H]1CCO[C@H]2Cn3cc(C(=O)NCc4ccc(F)cc4F)c(=O)c(O)c3C(=O)N12 | 0.96 | 1.16 | 0.79 | 1.31 | 0.84 | 0.96
3 | COc1ccccc1N1CCN(CC(O)COc2cccc3ccccc23)CC1 (stereo not given) [Naftopidil DiHCl] | 1.49 | 0.72 | 0.8 | 0.92 | 1.15 | 0.85
4 | CCN(CC)C(=O)C1(c2ccccc2)CC1CN (stereo not given) [Milnacipran HCl] | 0.86 | 0.77 | 0.86 | 0.99 | 0.78 | 0.8
5 | O=C(O)Cc1ccccc1Nc1c(Cl)cccc1Cl [Diclofenac Potassium] | 0.97 | 0.77 | 0.99 | 0.69 | 0.68 | 0.6
6 | CCCCCCCCc1ccc(CCC(N)(CO)CO)cc1 [Fingolimod (FTY720) HCl] | 1.16 | 0.66 | 0.85 | 0.58 | 0.8 | 0.88
7 | C=CC(=O)N1CCC(Oc2cc3c(Nc4ccc(Cl)c(Cl)c4F)ncnc3cc2OC)CC1 [Poziotinib (HM781-36B)] | 1.03 | 1.68 | 0.7 | 1.32 | 0.93 | 1.15
8 | CC(C)(O)c1ccccc1CC[C@@H](SCC1(CC(=O)O)CC1)c1cccc(/C=C/c2ccc3ccc(Cl)cc3n2)c1 [Montelukast Sodium] | 1.26 | 0.87 | 0.69 | 0.75 | 0.83 | 0.82
9 | COc1c(N2C[C@@H]3CCCN[C@@H]3C2)c(F)cc2c(=O)c(C(=O)O)cn(C3CC3)c12 [Moxifloxacin HCl] | 0.68 | 0.74 | 0.57 | 0.77 | 0.95 | 0.83
10 | O=NO [Sodium Nitrite] | 0.92 | 0.82 | 1.09 | 0.76 | 0.73 | 0.66
11 | C/C(=C\C(=O)OCCCCCCCCC(=O)O)C[C@@H]1OC[C@H](C[C@@H]2O[C@H]2[C@@H](C)[C@H](C)O)[C@@H](O)[C@H]1O [Mupirocin] | 0.95 | 0.97 | 0.68 | 0.97 | 0.89 | 0.82
12 | CC1=Nc2ccc(Cl)cc2S(=O)(=O)N1 [Diazoxide] | 0.93 | 0.93 | 0.95 | 1.12 | 1.18 | 1.16
13 | CN1CC(=O)N2[C@H](c3ccc4c(c3)OCO4)c3[nH]c4ccccc4c3C[C@@H]2C1=O [Tadalafil] | 0.88 | 1.03 | 1.14 | 1.5 | 1.09 | 1.54
14 | CC(C)(CO)C(O)C(=O)NCCCO (racemic) [DL-Panthenol] | 1.03 | 0.93 | 0.74 | 1.05 | 0.74 | 0.82
15 | O=c1[nH]cnc2c1ncn2[C@@H]1O[C@H](CO)[C@@H](O)[C@H]1O [Inosine] | 0.95 | 0.9 | 1.12 | 1.16 | 1.23 | 1.29
16 | Cc1cc(Nc2ncc(Cl)c(Nc3ccccc3S(=O)(=O)C(C)C)n2)c(OC(C)C)cc1C1CCNCC1 [Ceritinib (LDK378)] | 1.28 | 1.16 | 1.06 | 1 | 0.81 | 1.01
17 | CC1(C)S[C@@H]2[C@H](NC(=O)COc3ccccc3)C(=O)N2[C@H]1C(=O)O [Penicillin V potassium salt] | 0.93 | 0.88 | 0.81 | 0.78 | 1.07 | 0.93
18 | CS(=O)(=O)c1ccc(C(=O)Nc2ccc(Cl)c(-c3ccccn3)c2)c(Cl)c1 [Vismodegib (GDC-0449)] | 0.87 | 1.25 | 1.2 | 0.83 | 0.96 | 1.12
19 | CC(=O)O[C@H]1Cc2ccccc2N(C(N)=O)c2ccccc21 [Eslicarbazepine Acetate] | 0.75 | 0.82 | 0.78 | 0.8 | 0.97 | 0.93
20 | CN1CCN(c2ccc3nc(-c4c(N)c5c(F)cccc5[nH]c4=O)[nH]c3c2)CC1 [Dovitinib (TKI-258, CHIR-258)] | 0.69 | 0.59 | 0.9 | 0.88 | 0.78 | 0.68
21 | Nc1nc(O)c2ncn(CCC(CO)CO)c2n1 [Penciclovir] | 0.98 | 0.94 | 1.05 | 1.41 | 1.13 | 0.9
22 | CC1COc2c(N3CCN(C)CC3)c(F)cc3c(=O)c(C(=O)O)cn1c23 (stereo not given) [Ofloxacin] | 0.75 | 0.82 | 1.08 | 1.1 | 0.78 | 0.84
23 | COc1ccc(Cl)cc1C(=O)NCCc1ccc(S(=O)(=O)NC(=O)NC2CCCCC2)cc1 [Glyburide (Glibenclamide)] | 1.12 | 0.79 | 0.94 | 1.26 | 0.93 | 0.95

Row | Structure (SMILES) | growth (C. auris AR-384; 1 µM) | growth (C. auris AR-384; 10 µM) | growth (C. auris AR-386; 1 µM) | growth (C. auris AR-386; 10 µM) | growth (C. auris AR-387; 1 µM) | growth (C. auris AR-387; 10 µM)
24 | CN(CCOc1ccc(NS(C)(=O)=O)cc1)CCc1ccc(NS(C)(=O)=O)cc1 [Dofetilide] | 0.75 | 0.99 | 0.92 | 0.74 | 0.79 | 0.95
25 | O=C(CCCN1CCN(c2ccccn2)CC1)c1ccc(F)cc1 [Azaperone] | 1.1 | 0.93 | 0.95 | 0.52 | 0.9 | 0.72
26 | Nc1nc(N)nc(-c2cc(Cl)ccc2Cl)n1 [Irsogladine] | 0.94 | 0.89 | 0.7 | 0.79 | 0.9 | 0.86
27 | Clc1ccc2c(c1)C(N1CCNCC1)=Nc1ccccc1O2 [Amoxapine] | 0.93 | 0.89 | 1.13 | 0.75 | 0.76 | 1.12
28 | CCOC(=O)c1ccc(O)cc1 [Ethylparaben] | 0.82 | 0.71 | 0.66 | 1.02 | 0.72 | 0.93
29 | C=CC(=O)Nc1cc(Nc2nccc(-c3cn(C)c4ccccc34)n2)c(OC)cc1N(C)CCN(C)C [Osimertinib (AZD9291)] | 1.03 | 1.03 | 1.04 | 0.88 | 0.88 | 1.07
30 | Cc1nnc(C(C)C)n1C1C[C@H]2CC[C@@H](C1)N2CC[C@H](NC(=O)C1CCC(F)(F)CC1)c1ccccc1 (stereo in doubt) [Maraviroc] | 0.98 | 0.85 | 0.87 | 1.06 | 0.73 | 0.94
31 | CNCCCC12CCC(c3ccccc31)c1ccccc12 [Maprotiline HCl] | 0.91 | 0.82 | 0.6 | 0.77 | 0.81 | 0.98
32 | CC[C@H](C)[C@H](NC(=O)[C@H](Cc1ccccc1)NC(=O)[C@H](CCC(=O)O)NC(=O)[C@H](CCCCN)NC(=O)[C@H](C)NC(=O)[C@H](C)NC(=O)[C@H](CCC(N)=O)NC(=O)CNC(=O)[C@H](CCC(=O)O)NC(=O)[C@H](CC(C)C)NC(=O)[C@H](Cc1ccc(O)cc1)NC(=O)[C@H](CO)NC(=O)[C@H](CO)NC(=O)[C@@H](NC(=O)[C@H](CC(=O)O)NC(=O)[C@H](CO)NC(=O)[C@@H](NC(=O)[C@H](Cc1ccccc1)NC(=O)[C@@H](NC(=O)CNC(=O)[C@H](CCC(=O)O)NC(=O)CNC(=O)[C@@H](N)Cc1c[nH]cn1)[C@@H](C)O)[C@@H](C)O)C(C)C)C(=O)N[C@@H](C)C(=O)N[C@@H](Cc1c[nH]c2ccccc12)C(=O)N[C@@H](CC(C)C)C(=O)N[C@H](C(=O)N[C@@H](CCCCN)C(=O)NCC(=O)N[C@@H](CCCNC(=N)N)C(=O)O)C(C)C [Albiglutide] | 0.54 | 0.6 | 0.87 | 0.72 | 0.68 | 0.74
33 | S=P(N1CC1)(N1CC1)N1CC1 [Thiotepa] | 0.7 | 0.85 | 0.87 | 0.8 | 0.75 | 0.7
34 | CC1=C(CC(=O)O)c2cc(F)ccc2/C1=C\c1ccc([S+](C)[O-])cc1 (stereo not given) [Sulindac] | 0.77 | 0.66 | 0.75 | 0.68 | 0.7 | 0.71
35 | Cn1nnnc1SCC1=C(C(=O)O)N2C(=O)[C@@H](NC(=O)[C@H](OC=O)c3ccccc3)[C@H]2SC1 [Cefamandole nafate] | 0.79 | 0.96 | 1.08 | 1.24 | 1.1 | 1.16
36 | CCC(=O)NS(=O)(=O)c1ccc(-c2c(-c3ccccc3)noc2C)cc1 [Parecoxib] | 0.8 | 0.71 | 0.69 | 0.87 | 0.68 | 0.89
37 | Cc1nnc(C(=O)NC(C)(C)c2nc(C(=O)NCc3ccc(F)cc3)c(O)c(=O)n2C)o1 [Raltegravir (MK-0518)] | 0.93 | 0.95 | 0.89 | 1.05 | 0.75 | 1.18
38 | CN(C)CCCOc1nn(Cc2ccccc2)c2ccccc12 [Benzydamine HCl] | 0.81 | 0.85 | 0.94 | 1.03 | 0.64 | 0.74
39 | COc1ccc([C@@H]2Sc3ccccc3N(CCN(C)C)C(=O)[C@@H]2OC(C)=O)cc1 [Diltiazem HCl] | 0.85 | 0.91 | 1.04 | 1.18 | 0.96 | 0.85
40 | CCOC(=O)[C@H](CCc1ccccc1)N[C@@H](C)C(=O)N1Cc2cc(OC)c(OC)cc2C[C@H]1C(=O)O [Moexipril HCl] | 0.95 | 1.02 | 1 | 1.1 | 0.94 | 0.74
41 | OCC(CO)N[C@H]1C[C@](O)(CO)[C@@H](O)[C@H](O)[C@H]1O [Voglibose] | 0.92 | 1.05 | 1.03 | 1.1 | 1.16 | 1.13
42 | C[C@H]1O[C@@H](O[C@H]2[C@@H](O)C[C@H](O[C@H]3[C@@H](O)C[C@H](O[C@H]4CC[C@@]5(C)[C@H](CC[C@@H]6[C@@H]5C[C@@H](O)[C@]5(C)[C@@H](C7=CC(=O)OC7)CC[C@]65O)C4)O[C@@H]3C)O[C@@H]2C)C[C@H](O)[C@@H]1O [Digoxin] | 0.76 | 0.71 | 0.56 | 0.94 | 0.7 | 0.65
43 | NC(=O)c1ncn([C@@H]2O[C@H](CO)[C@@H](O)[C@H]2O)n1 [Ribavirin] | 0.82 | 0.72 | 0.74 | 0.53 | 0.75 | 0.7
44 | CC(CN(C)C)CN1c2ccccc2CCc2ccccc21 (stereo not given) [Trimipramine Maleate] | 0.85 | 0.95 | 1.09 | 1 | 0.89 | 1.05
45 | CCC[S+]([O-])c1ccc2[nH]c(NC(=O)OC)nc2c1 (stereo not given) [Albendazole Oxide] | 0.76 | 0.92 | 1.03 | 0.58 | 0.67 | 0.79

2 compounds drawn at random from those above, as already listed:
Row | Structure (SMILES) | growth (C. auris AR-384; 1 µM) | growth (C. auris AR-384; 10 µM) | growth (C. auris AR-386; 1 µM) | growth (C. auris AR-386; 10 µM) | growth (C. auris AR-387; 1 µM) | growth (C. auris AR-387; 10 µM)
11 | C/C(=C\C(=O)OCCCCCCCCC(=O)O)C[C@@H]1OC[C@H](C[C@@H]2O[C@H]2[C@@H](C)[C@H](C)O)[C@@H](O)[C@H]1O [Mupirocin] | 0.95 | 0.97 | 0.68 | 0.97 | 0.89 | 0.82
13 | CN1CC(=O)N2[C@H](c3ccc4c(c3)OCO4)c3[nH]c4ccccc4c3C[C@@H]2C1=O [Tadalafil] | 0.88 | 1.03 | 1.14 | 1.5 | 1.09 | 1.54
